Assay results from article PMC12480911, “Visualization of liquid-liquid phase transitions using a tiny G-quadruplex binding protein”.
Residue numbers refer to the chain shown, from its start. For some of these results: Weaker means in comparison with the reference protein, sequence or condition of that experiment. For some of these results: Protein sequences can lack the tags named with them. For some of these results: Construct, isoform or probe ends are uncertain for at least one entry. For some of these results: At least one verdict was read from the data and is not stated in words by the source.

How the values were obtained:
SERF2 (human) [1] = target: T1, SERF2 (human) (UniProt P84101); test: fluorescence polarization; settings: FP/anisotropy: 20 mM NaPi pH 7.4, 100 mM KCl, 25 C (20-200 nM probe), recombinant protein, residues 1-59, protein details: His-SUMO removed, AF488-labeled in some assays
T1 sequence (looked up): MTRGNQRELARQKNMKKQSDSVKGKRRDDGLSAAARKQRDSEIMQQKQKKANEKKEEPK

SERF2 (human) [2] = target: T1, SERF2 (human); test: EMSA; settings: recombinant protein, residues 1-59, protein details: His-SUMO removed, AF488-labeled in some assays, label: 6-FAM (FP)
[3] = target: T2, SERF2 K16-K17 double mutant K16A,K17A (human) (UniProt P84101); test: EMSA; settings: 5 uM each, significantly impaired; recombinant protein; residues 1-59; protein details: His-SUMO removed; label: 6-FAM (FP), unlabeled (NMR, EMSA)
T2 sequence (looked up): T1 sequence (looked up) with K16A, K17A

[4] = target: SERF2 both-interface lysine mutant (human) (UniProt P84101); test: EMSA; settings: 5 uM each, further reduced; recombinant protein; residues 1-59; protein details: His-SUMO removed; label: 6-FAM (FP), unlabeled (NMR, EMSA)
[5] = 100 mM KCl, folded or branched DNA

Question: Does “GGGGCCGGGGCCGGGGCCGGGGCC [(GGGGCC)4 DNA]” bind (SERF2 (human) [1]; [5])?
Answer: binds more weakly

Question: Does UUAGGGUUAGGG [TERRA12] bind (SERF2 (human) [1]; AF488-SERF2, weaker than TERRA23/60)?
Answer: binds more weakly

Question: Does “TTAGGGTTAGGGTTAGGGTTAGGG [(TTAGGG)4 DNA]” bind (SERF2 (human) [1]; [5])?
Answer: binds more weakly

Question: Does “GAAGGGGAGGGGGCUGGGGGGGGGCAGGG [Mark2 rG4]” bind (SERF2 (human) [2]; 10 uM RNA, 5-40 uM SERF2)?
Answer: binds

Question: Does UAGGGUUAGGGUUAGGGUUAGGG [TERRA23] bind [3]?
Answer: binds more weakly

Question: Does UAGGGUUAGGGUUAGGGUUAGGG [TERRA23] bind [4]?
Answer: binds more weakly

Question: Does UAGGGUUAGGGUUAGGGUUAGGG [TERRA23] bind (SERF2 (human) [2]; 5 uM each, unlabeled (NMR, EMSA))?
Answer: binds
